Whole data set: some 33,000 sequences, median “E-score (-0.5 to 0.5)” near -0.0059, cut for the highest 2% near 0.26. The list shows a part of the results.
Target: T1, Cin5 (UniProt P40917)
T1 sequence: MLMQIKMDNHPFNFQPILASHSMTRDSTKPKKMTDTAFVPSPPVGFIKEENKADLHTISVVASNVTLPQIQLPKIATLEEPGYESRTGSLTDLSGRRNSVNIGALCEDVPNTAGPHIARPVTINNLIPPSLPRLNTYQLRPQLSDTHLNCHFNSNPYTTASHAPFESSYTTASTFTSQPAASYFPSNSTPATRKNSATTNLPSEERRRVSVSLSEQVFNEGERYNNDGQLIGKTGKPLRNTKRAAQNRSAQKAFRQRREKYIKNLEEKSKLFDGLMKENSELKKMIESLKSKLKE
Assay: PBM E-score (8-mer binding enrichment) (E-score (-0.5 to 0.5)); higher = stronger / more preferred TF binding
Details: protein concentration: 100 nM; construct: GST-full length
How it was run: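 GST-tagged yeast TFs (full-length or DNA-binding domain) were made by PURExpress in vitro transcription/translation and applied at about 100-200 nM to universal all-10-mer Agilent arrays. The arrays were made double-stranded by primer extension, on fresh or once-stripped slides. Bound protein was detected with fluorescent anti-GST, and scans were normalised with masliner. Each ungapped eight-base word, pooled with its reverse complement, received an E-score (modified Wilcoxon-Mann-Whitney statistic) from the Universal PBM Analysis Suite.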

Sequence	PBM E-score
ACGCGTAA	0.086
AGGCTCAA	-0.0732
TAGAGCGA	-0.0129
TACGCCTA	-0.0912
AGAGTTTG	0.0211
GGGTGTCA	-0.0995
CGGCAACA	0.132
AATAATGC	0.145
CCCCGACC	-0.1
AAACCTGC	0.0414
CGTCACCA	-0.00244
TACGAAAA	0.00792
ACTAAAAC	0.0962
AGCTGTCC	-0.148
ACGTTTCG	-0.0249
ACAGATAT	0.141
AAACTAAG	0.185
CATCAAAA	0.175
GAATAGGA	0.108
ATCATCAT	0.187
GTTCGCCA	-0.165
GCCCGCAA	-0.00949
AAAGGACT	-0.127
ACACGCCA	0.0889
ACTCCCGC	-0.0164

Sequence	PBM E-score
ATGTAAAC	0.203
CGGAGCAA	0.0441
CGGATCTA	0.0466
CTCTTACA	0.0444
ATTGGCGC	-0.0385
CAAATGTC	-0.0915
TCATTTCA	0.0438
CTGAGAAC	0.0541
AAAGGGCC	-0.255
CTGGGAAG	-0.0869
CACTCGAC	0.043
GGGGTATA	0.0444
CGGCATTC	0.0894
GGACAAAA	0.19
ATGCACCC	-0.0275
AGCCCACA	-0.0647
ACATGGAC	-0.085
CTTCTGAA	0.0667
ATAGGTAG	-0.0174
AAGTTAAA	0.0659
ACATGGCG	-0.064
CCGCGACG	-0.212
TAATCTCA	0.228
GCTTGCAA	0.174
ACGGGCTA	-0.223

Sequence	PBM E-score
ACGATAAG	0.0474
AATTCTAC	0.116
AAAAAGAG	0.0349
CGGGACGA	0.00102
ACTTAAGC	0.153
GGAATGGA	0.00086
CCAGGGCC	-0.352
AAGTCCAG	-0.156
AGACCGAG	-0.079
GCGAATAA	0.102
GAACTTGC	-0.112
CTTCGATA	0.0174
GCCGACAC	-0.187
GAGGATTA	0.0536
ACCCGGAG	-0.0279
GCAGCACA	0.00715
GGCAGTAA	0.0124
TGACCGAA	0.00136
CATAAGAC	0.222
ATGGGTAG	-0.0956
AAACCAAA	0.0808
ACTGTAAA	0.154
AATGCTGT	-0.0772
CACGCTTA	0.218
AGGCTAAT	0.0863

Sequence	PBM E-score
CATGTACC	-0.175
GCCTGCCA	-0.0911
CGGGGGTA	-0.25
AGTGTGCC	-0.0429
CCCGAAAA	0.0533
AGCCAGCC	-0.221
GTCAACAA	-0.0289
ACTGTCTG	-0.122
AAATAGTA	0.161
CCAAAACC	-0.0268
CAGATCCA	0.0698
CAGGTGAA	0.0518
CCAGCGAA	-0.0947
GGTCACCA	-0.374
CCGTACTC	-0.0636
CTATCGAG	-0.0192
CTGTGTAC	0.0881
ACCAACAT	0.221
CGTGGGGC	-0.0803
AAGCTAAT	0.0739
AGTTATCG	0.146
GCCGCCTA	-0.101
CGTTACGA	-0.0231
GGTTCTGA	-0.02
GCATGCGA	0.231

Sequence	PBM E-score
GCCGTGAC	-0.0205
TGATAAAA	0.0968
GATTTCAA	0.129
AGCCACCT	-0.192
GGCTACCA	-0.249
ATAGGACG	0.00471
ATGATTAG	0.223
TAAAAGTA	0.152
AATCAAGA	0.123
ATGGCCCA	-0.0223
CCCCTCCC	-0.148
ATCTTGAG	0.061
CAGGGCGA	-0.0306
GGGACGAA	-0.145
CGTGACAA	0.0719
CTTCCCGA	0.0791
GGAGATAC	-0.0893
AACGCATT	0.0649
ACTGACCG	-0.144
CATCTTGA	-0.0532
GGATGGTA	0.119
GGACATTA	0.142
ACGTAACC	0.262
CCCGGTGA	-0.171
CAATGATG	0.0678

Part of the list above in another layout:
GGGACGAA
  PBM E-score = -0.145
CGTGACAA
  PBM E-score = 0.0719
CTTCCCGA
  PBM E-score = 0.0791
GGAGATAC
  PBM E-score = -0.0893

(next part)

Sequence	PBM E-score
AGTCATCA	0.169
ATCGACTC	-0.0516
CGTCGCAG	-0.11
AGCCCAAC	-0.00666
ATTTATGG	0.048
CTGCCTAA	-0.0566
GGAACAGA	0.107
CTCAGGTC	-0.0887
CACTTGCC	0.0168
GCCACCAC	-0.28
CTCAACCC	-0.15
CATGACCC	-0.0452
CGTTTTCC	-0.0272
TCTTTGCA	0.0622
AAGCGTGC	0.0828
CATGTAGC	-0.0321
CCGCAGAA	0.129
GCATACGA	-0.0648
ATGACCCG	-0.217
CAGCTCCG	-0.0242
CTCTAACC	-0.12
TAAGCCTA	0.207
AACTATAA	0.195
CTTCTAAC	-0.192
CGCGCACG	0.00472

Sequence	PBM E-score
GACATGAA	0.0409
CGCTTTCA	0.03
CTACAAGA	-0.0387
CGTCTGTC	-0.0348
AATACTCG	0.228
GATGGACC	0.167
CGACGCAC	-3e-05
GTTCTCAA	0.0545
AGCCTATG	-0.182
ACTACAAG	-0.109
ACTTCGCG	0.111
GGACTTCA	-0.101
CGTAGCAG	-0.0986
ACTTGGCA	-0.174
GAGTGCCC	-0.165
GGTTCACA	-0.117
TAAGTTGA	0.102
ACAGTCAC	-0.242
CCCAGAGC	-0.217
GGCATACA	0.0581
CAGGCGTA	-0.0347
ACTTCCCT	0.0843

Given bar-delimited: entries from further up
Sequence | PBM E-score
GGTTCACA | -0.117
TAAGTTGA | 0.102
ACAGTCAC | -0.242
CCCAGAGC | -0.217
